Measurements taken from the supplement of paper PMC12009310.
Structures can show the parent of a compound that is named as a salt. ± gives the standard deviation of the averaged measurements. The list shows a part of the results. Baselines shift from plate to plate; read single values as rough.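 The cells are a mouse kidney inner medullary collecting duct line, silenced either for the ciliary gene Rpgrip1l or with a non-targeting control siRNA.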

system: mIMCD3; experiment: robust z score of cell number vs plate controls; higher = more cells (less cytotoxic); settings: 10 µM; 48 h; siRNA: siRpgrip1l

| SMILES | robust z score of cell number |
| --- | --- |
| COc1ccc(C2CC(c3c(O)cc(C)oc3=O)=NCCS2)c(OC)c1 (stereo not drawn) | -26.9 ± 24 |
| CC1(C)C[C@@H]1C(=O)N/C(=C\CCCCSC[C@H](N)C(=O)O)C(=O)O [Cilastatin sodium] | -7.57 ± 4.7 |
| O=C(O)CCc1ccc(NCc2cccc(Oc3ccccc3)c2)cc1 | -10.5 ± 4.8 |
| COc1ccccc1N1CCN(CCN2C(=O)CC3(CCCC3)CC2=O)CC1 [BMY 7378 dihydrochloride] | -3.73 ± 0.7 |
| CS(=O)(=O)CCNCc1nc(-c2ccc3ncnc(Nc4ccc(OCc5cccc(F)c5)c(Cl)c4)c3c2)cs1 | -102 ± 78 |
| C[C@@]1(O)[C@H](O)[C@@H](CO)O[C@H]1n1cnc2c(NC3CCCC3)nc(Cl)nc21 | -2.97 ± 2.4 |
| CN/C(=N\c1ccc(C2=NNC(=O)CC2C)cc1)NC#N (stereo not drawn) [Siguazodan] | -9.41 ± 6.7 |
| COc1ccc(CCN(C)CCCOc2ccc(S(=O)(=O)c3c(C(C)C)c4ccccc4n3C)cc2)cc1OC | -57.4 ± 57 |
| C[N+](C)(C)CC[N+]1(C)Cc2c(Cl)c(Cl)c(Cl)c(Cl)c2C1 [Chlorisondamine diiodide] | 1.5 ± 3.6 |
| CCCCc1nc2ccn(Cc3cccs3)c(=O)c2n1Cc1ccc(-c2ccccc2-c2nn[nH]n2)cc1 | -0.467 ± 0.38 |
| CC(C)[C@H](CO)Nc1nc(Nc2cc(N)cc(Cl)c2)c2ncn(C(C)C)c2n1 [Aminopurvalanol A] | -38.2 ± 25 |
| Cn1cc(C2=C(c3ccc(Cl)cc3Cl)C(=O)NC2=O)c2ccccc21 | -39.9 ± 40 |
| COc1cc2nc(N3CCN(C(=O)C4CCCO4)CC3)nc(N)c2cc1OC (stereo not drawn) [Terazosin hydrochloride] | -27.7 ± 32 |
| CCCC(=O)Nc1ncnc2c1ncn2[C@@H]1O[C@@H]2COP(=O)(O)O[C@H]2[C@H]1OC(=O)CCC [Dibutyryl-cAMP, sodium salt] | -7.09 ± 5 |
| CCCCCCCCCCC[C@@H](C[C@@H]1OC(=O)[C@H]1CCCCCC)OC(=O)[C@H](CC(C)C)NC=O [Orlistat] | -31.6 ± 30 |
| Cc1nn(C)c2nc(NNC(=O)Nc3cc(Cl)nc(Cl)c3)cc(C(C)C)c12 | -28.9 ± 14 |
| Cc1cc(F)c(Nc2ncnc3cc(OCc4ccccc4)ccc23)cc1O | -32.8 ± 11 |
| Cc1cc(C(=O)O)sc1C(N)C(=O)O (stereo not drawn) | -1.55 ± 2.3 |
| CN1CCC(=C2c3ccccc3CC(=O)c3sccc32)CC1 [Ketotifen fumarate] | 1.08 ± 0.093 |

Filtered by structure, the compounds so far with an aryl methoxy group

| SMILES | robust z score of cell number |
| --- | --- |
| COc1ccc(C2CC(c3c(O)cc(C)oc3=O)=NCCS2)c(OC)c1 (stereo not drawn) | -26.9 ± 24 |
| COc1ccccc1N1CCN(CCN2C(=O)CC3(CCCC3)CC2=O)CC1 [BMY 7378 dihydrochloride] | -3.73 ± 0.7 |
| COc1ccc(CCN(C)CCCOc2ccc(S(=O)(=O)c3c(C(C)C)c4ccccc4n3C)cc2)cc1OC | -57.4 ± 57 |
| COc1cc2nc(N3CCN(C(=O)C4CCCO4)CC3)nc(N)c2cc1OC (stereo not drawn) [Terazosin hydrochloride] | -27.7 ± 32 |

Later entries.

| SMILES | robust z score of cell number |
| --- | --- |
| C[C@@H](N)[C@H]1CC[C@H](C(=O)Nc2ccncc2)CC1 | -13.7 ± 5.2 |
| CCCCC#Cc1nc(NC)c2ncn([C@@H]3O[C@H](CO)[C@@H](O)[C@H]3O)c2n1 | -8.55 ± 10 |
| CC(C)C1C2CCC(C2)C1N (stereo not drawn) | -10.5 ± 6.8 |
| Cc1ccc(Sc2cncc3sc(C(N)=O)cc23)cc1 | -12.7 ± 5.4 |
| CCN(CC)CCCCNc1ncc2cc(-c3c(Cl)cccc3Cl)c(NC(=O)NC(C)(C)C)nc2n1 | -62.1 ± 53 |
| O=S(=O)(NCCNC/C=C/c1ccc(Br)cc1)c1cccc2cnccc12 [H 89 dihydrochloride] | -23.6 ± 22 |
| CC1(C)O[C@@H]2[C@@H](CO[C@@]3(COS(N)(=O)=O)OC(C)(C)O[C@@H]23)O1 [Topiramate] | -13.2 ± 14 |
| OCc1cc(C(O)CNCCCCCCOCCCCc2ccccc2)ccc1O (stereo not drawn) [Salmeterol] | -52.4 ± 54 |
| COc1ccc(CC(=O)NC(/N=C(\NC#N)Nc2cccc3ncccc23)C(C)(C)C)cc1OC (stereo not drawn) | -49.2 ± 60 |
| COc1cc(C(=O)OCCCN2CCCN(CCCOC(=O)c3cc(OC)c(OC)c(OC)c3)CC2)cc(OC)c1OC [Dilazep dihydrochloride] | -79 ± 70 |
| Cc1c(C(=O)NC2CCCCC2)sc2nc3ccc(N)cc3n12 | -10.4 ± 5.9 |
| OCCNCCCOc1cccc(Cl)c1Cl [2,3-DCPE hydrochloride] | -9.08 ± 5.3 |
| c1ccc(-c2n[nH]c3c2oc2ccccc23)cc1 | -11.1 ± 3.8 |
| NC(=O)OCC(COC(N)=O)c1ccccc1 [Felbamate] | 0.26 ± 4.5 |
| CCc1nn(CCCN2CCN(c3cccc(Cl)c3)CC2)c(=O)n1CCOc1ccccc1 [Nefazodone hydrochloride] | -17.5 ± 16 |
| CC(C)(CO)Cc1cc(C(C)(C)C)c(O)c(C(C)(C)C)c1 | 8.36 ± 27 |
| NC(N)=Nc1ccc(Cl)cc1 [4-Chlorophenylguanidine hydrochloride] | 4.31 ± 4.9 |
| Nc1ncnc2c1nc(Br)n2[C@@H]1O[C@@H]2COP(=O)(O)O[C@H]2[C@H]1O [8-Bromo-cAMP, sodium salt] | -9.65 ± 5.4 |
| CC(C)c1onc(-c2c(Cl)cccc2Cl)c1COc1ccc(/C=C/c2cccc(C(=O)O)c2)c(Cl)c1 | -31.8 ± 10 |
